In US20130253011A1, “INSECTICIDAL COMPOUNDS” (SYNGENTA PARTICIPATIONS AG, priority 2010, published 2013):
Some results were stated once for a whole list of compounds, not compound by compound.

What was measured:
Type in all cases: in vivo
[1] = system: Heliothis virescens (Tobacco budworm); test: Heliothis virescens egg test on artificial diet; settings: 200 ppm (concentration in well 18 pm) by pipetting; eggs 0 to 24 h old on artificial diet; egg mortality, larval mortality, growth regulation after 4 days
[2] = system: Diabrotica balteata (Corn root worm); test: Diabrotica balteata larval test on artificial diet; settings: 200 ppm (concentration in well 18 ppm) on artificial diet; L2 larvae; larval mortality, growth regulation after 5 days
[3] = system: Plutella xylostella (Diamond back moth); test: Plutella xylostella larval test on artificial diet; settings: 200 ppm (concentration in well 18 ppm) on artificial diet; L2 larvae; larval mortality, growth regulation after 6 days

Cn1nc(C(F)(F)C(F)(F)F)c(C(F)(F)F)c1-n1cc(-c2ccc(C#N)c(NC(=O)C3CC3)c2)nn1 [Compound A2]
control of Heliothis virescens [1]: at least 80% | control of Diabrotica balteata [2]: at least 80%

Cc1ccc(C(=O)Nc2cccc(-c3cn(-c4c(C(F)(F)F)c(C(F)(F)C(F)(F)F)nn4C)nn3)c2)cc1 [Compound A12]
control of Plutella xylostella [3]: at least 80% | control of Diabrotica balteata [2]: at least 80%

Cn1nc(C(F)(F)C(F)(F)F)c(C(F)(F)F)c1-n1cc(-c2cccc(NC(=O)c3cc(Cl)ccc3F)c2)nn1 [Compound A14]
control of Heliothis virescens [1]: at least 80%

Cn1nc(C(F)(F)C(F)(F)F)c(C(F)(F)F)c1-n1cc(-c2cccc(NC(=O)c3ccc(C(F)(F)F)cc3)c2)nn1 [Compound A19]
control of Heliothis virescens [1]: at least 80%

Cn1nc(C(F)(F)C(F)(F)F)c(C(F)(F)F)c1-n1cc(-c2cccc(NC(=O)c3ccccc3OC(F)(F)F)c2)nn1 [Compound A20]
control of Heliothis virescens [1]: at least 80%

Cn1nc(C(F)(F)C(F)(F)F)c(C(F)(F)F)c1-n1cc(-c2ccc(C#N)c(NC(=O)c3cc(Cl)ccc3F)c2)nn1 [Compound A37]
control of Heliothis virescens [1]: at least 80%

Cn1nc(C(F)(F)C(F)(F)F)c(C(F)(F)F)c1-n1cc(-c2ccc(C#N)c(NC(=O)c3ccc(F)c(C(F)(F)F)c3)c2)nn1 [Compound A41]
control of Heliothis virescens [1]: at least 80% | control of Plutella xylostella [3]: at least 80%

Cn1nc(C(F)(F)C(F)(F)F)c(C(F)(F)F)c1-n1cc(-c2ccc(Cl)c(NC(=O)c3ccc([N+](=O)[O-])cc3)c2)nn1 [Compound A57]
control of Heliothis virescens [1]: at least 80% | control of Plutella xylostella [3]: at least 80% | control of Diabrotica balteata [2]: at least 80%

Cn1nc(C(F)(F)C(F)(F)F)c(C(F)(F)F)c1-n1cc(-c2ccc(Cl)c(NC(=O)c3ccc([N+](=O)[O-])cc3Cl)c2)nn1 [Compound A61]
control of Heliothis virescens [1]: at least 80% | control of Plutella xylostella [3]: at least 80% | control of Diabrotica balteata [2]: at least 80%

Cn1nc(C(F)(F)C(F)(F)F)c(C(F)(F)F)c1-n1cc(-c2ccc(Cl)c(NC(=O)c3ccc(C(F)(F)F)cc3)c2)nn1 [Compound A65]
control of Heliothis virescens [1]: at least 80% | control of Diabrotica balteata [2]: at least 80%

Cn1nc(C(F)(F)C(F)(F)F)c(C(F)(F)F)c1-n1cc(-c2ccc(Cl)c(NC(=O)c3ccccc3)c2)nn1 [Compound A68]
control of Heliothis virescens [1]: at least 80% | control of Diabrotica balteata [2]: at least 80%

Cn1nc(C(F)(F)C(F)(F)F)c(C(F)(F)F)c1-n1cc(-c2ccc(Cl)c(NC(=O)c3ccc(F)cc3)c2)nn1 [Compound A69]
control of Heliothis virescens [1]: at least 80% | control of Diabrotica balteata [2]: at least 80%

Cc1nnsc1C(=O)Nc1cc(-c2cn(-c3c(C(F)(F)F)c(C(F)(F)C(F)(F)F)nn3C)nn2)ccc1Cl [Compound A72]
control of Heliothis virescens [1]: at least 80%

Cn1nc(C(F)(F)C(F)(F)F)c(C(F)(F)F)c1-n1cc(-c2ccc(C#N)c(NC(=O)C(F)(F)C(F)(F)C(F)(F)F)c2)nn1 [Compound A79]
control of Plutella xylostella [3]: at least 80%

Cn1nc(C(F)(F)C(F)(F)F)c(C(F)(F)F)c1-n1cc(-c2ccc(C#N)c(NC(=O)c3ccc(CCl)cc3)c2)nn1 [Compound A83]
control of Plutella xylostella [3]: at least 80%

CC(C(=O)Nc1cc(-c2cn(-c3c(C(F)(F)F)c(C(F)(F)C(F)(F)F)nn3C)nn2)ccc1C#N)c1ccccc1 (centres unmarked) [Compound A95]
control of Plutella xylostella [3]: at least 80%

COc1ccc(CC(=O)Nc2cc(-c3cn(-c4c(C(F)(F)F)c(C(F)(F)C(F)(F)F)nn4C)nn3)ccc2C#N)cc1 [Compound A123]
control of Plutella xylostella [3]: at least 80%

Cn1nc(C(F)(F)C(F)(F)F)c(C(F)(F)F)c1-n1cc(-c2cccc(NC(=O)c3c(F)cc(F)cc3F)c2F)nn1 [Compound A130]
control of Heliothis virescens [1]: at least 80% | control of Plutella xylostella [3]: at least 80%

COc1c(NC(=O)c2ccccc2)cccc1-c1cn(-c2c(C(F)(F)F)c(C(F)(F)C(F)(F)F)nn2C)nn1 [Compound A139]
control of Heliothis virescens [1]: at least 80%

COc1c(NC(=O)c2ccc(C#N)cc2C)cccc1-c1cn(-c2c(C(F)(F)F)c(C(F)(F)C(F)(F)F)nn2C)nn1 [Compound A140]
control of Heliothis virescens [1]: at least 80%

COc1c(NC(=O)c2ccc[n+]([O-])c2)cccc1-c1cn(-c2c(C(F)(F)F)c(C(F)(F)C(F)(F)F)nn2C)nn1 [Compound A142]
control of Heliothis virescens [1]: at least 80% | control of Plutella xylostella [3]: at least 80%

Cn1nc(C(F)(F)C(F)(F)F)c(C(F)(F)F)c1-n1cc(-c2cccc(NC(=O)c3ccc(Cl)nc3)c2F)nn1 [Compound A146]
control of Heliothis virescens [1]: at least 80% | control of Plutella xylostella [3]: at least 80% | control of Diabrotica balteata [2]: at least 80%

Cn1nc(C(F)(F)C(F)(F)F)c(C(F)(F)F)c1-n1cc(-c2cccc(NC(=O)c3ccccn3)c2F)nn1 [Compound A147]
control of Heliothis virescens [1]: at least 80%

Cn1nc(C(F)(F)C(F)(F)F)c(C(F)(F)F)c1-n1cc(-c2cccc(NC(=O)c3ccc4c(c3)nnn4C)c2F)nn1 [Compound A149]
control of Heliothis virescens [1]: at least 80%

Cn1nc(C(F)(F)C(F)(F)F)c(C(F)(F)F)c1-n1cc(-c2cccc(NC(=O)c3ccc(C(F)(F)F)nc3)c2F)nn1 [Compound A151]
control of Heliothis virescens [1]: at least 80% | control of Plutella xylostella [3]: at least 80% | control of Diabrotica balteata [2]: at least 80%

Cn1nc(C(F)(F)C(F)(F)F)c(C(F)(F)F)c1-n1cc(-c2cccc(NC(=O)c3cccnc3Cl)c2F)nn1 [Compound A157]
control of Heliothis virescens [1]: at least 80% | control of Plutella xylostella [3]: at least 80% | control of Diabrotica balteata [2]: at least 80%

Cc1cc(C(=O)Nc2cccc(-c3cn(-c4c(C(F)(F)F)c(C(F)(F)C(F)(F)F)nn4C)nn3)c2F)c(C(F)(F)F)o1 [Compound A158]
control of Heliothis virescens [1]: at least 80% | control of Diabrotica balteata [2]: at least 80%

COc1cc(C(=O)Nc2cccc(-c3cn(-c4c(C(F)(F)F)c(C(F)(F)C(F)(F)F)nn4C)nn3)c2F)cc(Cl)n1 [Compound A159]
control of Heliothis virescens [1]: at least 80% | control of Plutella xylostella [3]: at least 80% | control of Diabrotica balteata [2]: at least 80%

Cn1nc(C(F)(F)C(F)(F)F)c(C(F)(F)F)c1-n1cc(-c2cccc(NC(=O)c3cc4ccccc4s3)c2F)nn1 [Compound A163]
control of Plutella xylostella [3]: at least 80%

Cn1nc(C(C)(C)C)cc1C(=O)Nc1cccc(-c2cn(-c3c(C(F)(F)F)c(C(F)(F)C(F)(F)F)nn3C)nn2)c1F [Compound A167]
control of Heliothis virescens [1]: at least 80%

Cc1cc(C(=O)Nc2cccc(-c3cn(-c4c(C(F)(F)F)c(C(F)(F)C(F)(F)F)nn4C)nn3)c2F)c(C)o1 [Compound A175]
control of Diabrotica balteata [2]: at least 80%

Cn1nc(C(F)(F)C(F)(F)F)c(C(F)(F)F)c1-n1cc(-c2cccc(NC(=O)c3cccs3)c2F)nn1 [Compound A178]
control of Heliothis virescens [1]: at least 80% | control of Plutella xylostella [3]: at least 80% | control of Diabrotica balteata [2]: at least 80%

Cn1nc(C(F)(F)C(F)(F)F)c(C(F)(F)F)c1-n1cc(-c2cccc(NC(=O)c3ccccc3F)c2F)nn1 [Compound A180]
control of Heliothis virescens [1]: at least 80% | control of Diabrotica balteata [2]: at least 80%

Cc1ccccc1C(=O)Nc1cccc(-c2cn(-c3c(C(F)(F)F)c(C(F)(F)C(F)(F)F)nn3C)nn2)c1F [Compound A181]
control of Heliothis virescens [1]: at least 80% | control of Plutella xylostella [3]: at least 80% | control of Diabrotica balteata [2]: at least 80%

Cn1nc(C(F)(F)C(F)(F)F)c(C(F)(F)F)c1-n1cc(-c2cccc(NC(=O)c3ccccc3Cl)c2F)nn1 [Compound A182]
control of Heliothis virescens [1]: at least 80% | control of Plutella xylostella [3]: at least 80% | control of Diabrotica balteata [2]: at least 80%

Cn1nc(C(F)(F)C(F)(F)F)c(C(F)(F)F)c1-n1cc(-c2cccc(NC(=O)c3ccc(C#N)cc3)c2F)nn1 [Compound A183]
control of Heliothis virescens [1]: at least 80% | control of Plutella xylostella [3]: at least 80% | control of Diabrotica balteata [2]: at least 80%

Cn1nc(C(F)(F)C(F)(F)F)c(C(F)(F)F)c1-n1cc(-c2cccc(NC(=O)c3ccc([N+](=O)[O-])cc3)c2F)nn1 [Compound A184]
control of Heliothis virescens [1]: at least 80% | control of Plutella xylostella [3]: at least 80% | control of Diabrotica balteata [2]: at least 80%

Cc1cc(F)ccc1C(=O)Nc1cccc(-c2cn(-c3c(C(F)(F)F)c(C(F)(F)C(F)(F)F)nn3C)nn2)c1F [Compound A186]
control of Heliothis virescens [1]: at least 80%

Cn1nc(C(F)(F)C(F)(F)F)c(C(F)(F)F)c1-n1cc(-c2cccc(NC(=O)c3cc(Cl)ccc3F)c2F)nn1 [Compound A187]
control of Heliothis virescens [1]: at least 80%

Cn1nc(C(F)(F)C(F)(F)F)c(C(F)(F)F)c1-n1cc(-c2cccc(NC(=O)c3ccc([N+](=O)[O-])cc3Cl)c2F)nn1 [Compound A188]
control of Heliothis virescens [1]: at least 80% | control of Plutella xylostella [3]: at least 80% | control of Diabrotica balteata [2]: at least 80%

Cn1nc(C(F)(F)C(F)(F)F)c(C(F)(F)F)c1-n1cc(-c2cccc(NC(=O)c3ccc(OC(F)(F)F)cc3)c2F)nn1 [Compound A190]
control of Heliothis virescens [1]: at least 80% | control of Diabrotica balteata [2]: at least 80%

Cn1nc(C(F)(F)C(F)(F)F)c(C(F)(F)F)c1-n1cc(-c2cccc(NC(=O)c3ccc(F)c(C(F)(F)F)c3)c2F)nn1 [Compound A191]
control of Diabrotica balteata [2]: at least 80%

Cn1nc(C(F)(F)C(F)(F)F)c(C(F)(F)F)c1-n1cc(-c2cccc(NC(=O)c3ccc(F)cc3Cl)c2F)nn1 [Compound A196]
control of Heliothis virescens [1]: at least 80%

Cn1nc(C(F)(F)C(F)(F)F)c(C(F)(F)F)c1-n1cc(-c2cccc(NC(=O)c3cccc(F)c3F)c2F)nn1 [Compound A198]
control of Heliothis virescens [1]: at least 80% | control of Diabrotica balteata [2]: at least 80%
